Reference: article PMC12061330
These are yes or no findings as the source states them, for the method shown. In cells and extracts the contact can be indirect. Some binding calls cover weakened binding; strength is not graded here.

Amino acid sequences for entries named in this document (tags omitted).
UniProt P01106: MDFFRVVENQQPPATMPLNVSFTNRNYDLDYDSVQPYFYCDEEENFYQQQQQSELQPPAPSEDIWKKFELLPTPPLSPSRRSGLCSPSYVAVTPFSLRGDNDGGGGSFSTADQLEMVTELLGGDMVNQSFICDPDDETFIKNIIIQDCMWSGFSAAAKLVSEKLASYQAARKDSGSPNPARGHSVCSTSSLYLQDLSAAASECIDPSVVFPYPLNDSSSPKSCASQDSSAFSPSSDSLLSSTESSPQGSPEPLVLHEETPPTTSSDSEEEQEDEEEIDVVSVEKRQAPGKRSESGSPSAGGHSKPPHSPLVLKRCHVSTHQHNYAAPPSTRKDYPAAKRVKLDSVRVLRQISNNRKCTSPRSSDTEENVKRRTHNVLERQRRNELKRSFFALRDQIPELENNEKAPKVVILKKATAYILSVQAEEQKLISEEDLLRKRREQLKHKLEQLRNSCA
UniProt Q14690: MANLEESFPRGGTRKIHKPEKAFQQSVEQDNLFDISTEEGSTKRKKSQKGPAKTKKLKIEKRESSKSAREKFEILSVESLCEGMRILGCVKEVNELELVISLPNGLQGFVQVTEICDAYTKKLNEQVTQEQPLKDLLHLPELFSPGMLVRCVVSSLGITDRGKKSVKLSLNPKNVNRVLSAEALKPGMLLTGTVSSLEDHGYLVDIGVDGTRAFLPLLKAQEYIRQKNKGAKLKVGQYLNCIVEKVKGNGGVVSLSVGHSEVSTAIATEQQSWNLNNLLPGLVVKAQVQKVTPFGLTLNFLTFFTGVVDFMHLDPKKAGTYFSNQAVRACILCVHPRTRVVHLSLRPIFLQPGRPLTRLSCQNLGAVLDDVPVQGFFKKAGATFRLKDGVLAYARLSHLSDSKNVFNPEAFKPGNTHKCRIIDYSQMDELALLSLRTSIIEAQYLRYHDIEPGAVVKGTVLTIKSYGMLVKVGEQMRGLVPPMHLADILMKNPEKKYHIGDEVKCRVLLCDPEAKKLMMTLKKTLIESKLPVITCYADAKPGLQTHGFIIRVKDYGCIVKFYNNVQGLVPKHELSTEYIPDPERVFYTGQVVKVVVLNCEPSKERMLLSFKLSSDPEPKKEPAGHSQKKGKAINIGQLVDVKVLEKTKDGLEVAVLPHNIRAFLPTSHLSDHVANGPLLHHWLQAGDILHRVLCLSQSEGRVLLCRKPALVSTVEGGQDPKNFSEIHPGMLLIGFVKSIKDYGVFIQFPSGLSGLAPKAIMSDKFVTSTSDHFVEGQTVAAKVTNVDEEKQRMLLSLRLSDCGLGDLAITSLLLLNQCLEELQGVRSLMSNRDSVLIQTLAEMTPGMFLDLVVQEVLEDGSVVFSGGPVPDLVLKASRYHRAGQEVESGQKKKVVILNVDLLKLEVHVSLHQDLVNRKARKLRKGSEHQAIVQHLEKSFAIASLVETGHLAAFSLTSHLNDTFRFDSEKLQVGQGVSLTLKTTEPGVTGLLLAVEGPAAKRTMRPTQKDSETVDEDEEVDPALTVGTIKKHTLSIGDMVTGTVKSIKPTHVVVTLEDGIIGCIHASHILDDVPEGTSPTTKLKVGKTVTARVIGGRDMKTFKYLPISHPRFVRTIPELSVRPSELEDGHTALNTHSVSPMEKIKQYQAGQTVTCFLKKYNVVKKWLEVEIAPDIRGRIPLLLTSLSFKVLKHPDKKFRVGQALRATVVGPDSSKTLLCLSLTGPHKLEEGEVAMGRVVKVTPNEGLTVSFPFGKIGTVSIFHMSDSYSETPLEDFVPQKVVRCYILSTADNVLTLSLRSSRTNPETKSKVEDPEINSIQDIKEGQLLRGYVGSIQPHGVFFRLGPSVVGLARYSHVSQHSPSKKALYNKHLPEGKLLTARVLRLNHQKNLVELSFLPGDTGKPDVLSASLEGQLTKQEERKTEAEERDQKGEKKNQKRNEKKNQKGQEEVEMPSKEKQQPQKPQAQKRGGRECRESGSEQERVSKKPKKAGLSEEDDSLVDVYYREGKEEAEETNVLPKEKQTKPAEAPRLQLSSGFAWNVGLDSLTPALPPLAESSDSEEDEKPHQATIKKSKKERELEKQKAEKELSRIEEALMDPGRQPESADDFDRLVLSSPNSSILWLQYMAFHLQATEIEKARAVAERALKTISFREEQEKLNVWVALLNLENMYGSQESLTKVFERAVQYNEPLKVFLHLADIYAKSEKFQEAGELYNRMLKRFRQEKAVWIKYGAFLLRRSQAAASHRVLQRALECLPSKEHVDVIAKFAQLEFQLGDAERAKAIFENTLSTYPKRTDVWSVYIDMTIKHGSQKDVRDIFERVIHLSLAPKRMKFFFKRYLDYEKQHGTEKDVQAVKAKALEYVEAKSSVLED

Target: C‐MYC (endogenous) (human (endogenous in MDA‐MB‐231 and HT‐29)) (UniProt P01106)
Experiment: co-IP; anti‐C‐MYC precipitation of endogenous proteins from MDA‐MB‐231 and HT‐29 cell lysate; normal rabbit IgG as negative control; input 5% of the lysate

binding: binds
Substance: PDCD11 (endogenous) (from UniProt Q14690 1-1871)
